Measurements taken from paper PMC6199744, “Development of Chemical Proteomics for the Folateome and Analysis of the Kinetoplastid Folateome” (ACS Infectious Diseases, 2018).
The source gives many values for each of these; only a part stands here.

System: L. major lysate proteins
Experiment: Multitargeted bead mixture chemoproteomics, single concentration competition, proteome-wide
Format: binding
Conditions: vs vehicle control

`Nc1nc2[nH]cc(CCc3ccc(C(=O)N[C@@H](CCC(=O)O)C(=O)O)cc3)c2c(=O)[nH]1` [PTX, pemetrexed] showed a fold change (protein LMJF.15.0240 N[…]-TRANSFER PROTEIN, PUTATIVE,STEROL CARRIER PROTEIN, PUTATIVE) of 1.24, a fold change (protein LMJF.15.0950 40S RIBOSOMAL PROTEIN S3, PUTATIVE) of 1.05 and a fold change (protein LMJF.16.0440 FUCOSE KINASE, PUTATIVE) of 0.91. It also gave a fold change (protein LMJF.16.0550 OROTIDINE-5-PHOSPHATE DECARBOXYLASE/OROTATE PHOSPHORIBOSYLTRANSFERASE, PUTATIVE) of 0.86, a fold change (protein LMJF.18.0700 HY[…], CONSERVED) of 0.73 and a fold change (protein LMJF.18.1280 HY[…], CONSERVED) of 0.87. For the same compound, the fold change (protein LMJF.19.0060 40S RIBOSOMAL PROTEIN S2) was 1.37, the fold change (protein LMJF.19.0490 HY[…], CONSERVED) was 0.77 and the fold change (protein LMJF.19.0710 […] DEHYDROGENASE) was 0.96. The fold change (protein LMJF.21.0250 HEXOKINASE, PUTATIVE) was 0.86, the fold change (protein LMJF.21.0760 […]-ATP-ASE SUBUNIT 5, PUTATIVE,19S […]) was 0.7 and the fold change (protein LMJF.21.0800 HY[…], CONSERVED) was 0.49. For the same compound, the fold change (protein LMJF.21.1250 ADENYLATE KINASE, PUTATIVE) was 0.77, the fold change (protein LMJF.21.1770 ATP SYNTHASE F1 SUBUNIT GAMMA PROTEIN, PUTATIVE) was 0.96 and the fold change (protein LMJF.21.1860 BETA TUBULIN) was 0.99. For the same compound, the fold change (protein LMJF.22.0300 HY[…], CONSERVED) was 0.77, the fold change (protein LMJF.22.0410 HY[…], CONSERVED) was 0.85 and the fold change (protein LMJF.22.0620 […] SUBUNIT 5, PUTATIVE) was 1.01. For the same compound, the fold change (protein LMJF.22.0990 HY[…], CONSERVED) was 0.94, the fold change (protein LMJF.22.1290 RIBONUCLEOSIDE-DIPHOSPHATE REDUCTASE SMALL CHAIN, PUTATIVE) was 0.72 and the fold change (protein LMJF.22.1500 ATP-DEPENDENT DEAD/H RNA HELICASE, PUTATIVE) was 1.18. The fold change (protein LMJF.23.0380 ATP-BINDING CASSETTE PROTEIN SUBFAMILY G, MEMBER 5, PUTATIVE) was 0.84, the fold change (protein LMJF.23.0830 NA/H ANTIPORTER-LIKE PROTEIN) was 0.89 and the fold change (protein LMJF.23.1350 ACETYLTRANSFERASE-LIKE PROTEIN) was 0.84. It also gave a fold change (protein LMJF.25.1210 HY[…], CONSERVED) of 0.87, a fold change (protein LMJF.26.0280 HY[…], CONSERVED) of 0.86 and a fold change (protein LMJF.27.0420 RIBOKINASE, PUTATIVE) of 0.97. The fold change (protein LMJF.27.1810 GLYCOSOMAL PHOSPHOENOLPYRUVATE CARBOXYKINASE, PUTATIVE) was 1.03, the fold change (protein LMJF.27.2630 ATP-DEPENDENT CLP PROTEASE SUBUNIT, HEAT SHOCK PROTEIN 78 (HSP78), PUTATIVE) was 0.76 and the fold change (protein LMJF.28.2250 […] PROTEIN-LIKE PROTEIN) was 1.14. It also gave a fold change (protein LMJF.29.0060 TRYPTOPHANYL-TRNA SYNTHETASE, PUTATIVE) of 0.92, a fold change (protein LMJF.29.1550 HY[…], CONSERVED) of 0.46 and a fold change (protein LMJF.29.1720 HISTONE H2A, PUTATIVE) of 1. It also gave a fold change (protein LMJF.29.1830 DIHYDROLIPOAMIDE DEHYDROGENASE, PUTATIVE) of 0.76, a fold change (protein LMJF.29.2440 HY[…], CONSERVED) of 0.76 and a fold change (protein LMJF.30.1010 UBIQUITIN FUSION D[…] 2, PUTATIVE,UBIQUITIN C[…] E4 B, PUTATIVE) of 0.47. For the same compound, the fold change (protein LMJF.30.1940 SUCCINYL-COA:3-KETOACID-COENZYME A TRANSFERASE- LIKE PROTEIN) was 0.9, the fold change (protein LMJF.30.3110 S-ADENOSYLMETHIONINE DECARBOXYLASE) was 0.64 and the fold change (protein LMJF.30.3190 3-HYDROXY-3-METHYLGLUTARYL-COA REDUCTASE) was 0.64. For the same compound, the fold change (protein LMJF.30.3390 CAS/CSE/IMPORTIN DOMAIN PROTEIN, PUTATIVE) was 0.74, the fold change (protein LMJF.31.1800 AMINO ACID PERMEASE) was 0.93 and the fold change (protein LMJF.31.2640 2-OXOGLUTARATE DEHYDROGENASE, E3 COMPONENT, LIPOAMIDEDEHYDROGENASE-LIKE PROTEIN) was 0.94. For the same compound, the fold change (protein LMJF.31.2650 ACETOIN DEHYDROGENASE E3 COMPONENT-LIKE PROTEIN) was 0.94, the fold change (protein LMJF.31.2970 ACETYL-COA CARBOXYLASE, PUTATIVE) was 0.73 and the fold change (protein LMJF.31.3130 METHYLCROTONOYL-COA CARBOXYLASE BIOTINYLATED SUBUNITPROTEIN-LIKE PROTEIN) was 0.85. It also gave a fold change (protein LMJF.32.0390 […]-ATP-ASE SUBUNIT 8, PUTATIVE,26S […], PUTATIVE) of 0.73, a fold change (protein LMJF.32.3640 HY[…], CONSERVED) of 0.7 and a fold change (protein LMJF.33.0830 2,4-DIENOYL-COA REDUCTASE FADH1, PUTATIVE) of 0.95. The fold change (protein LMJF.33.1030 HY[…], CONSERVED) was 0.91, the fold change (protein LMJF.33.1610 PEPTIDASE M20/M25/M40, PUTATIVE) was 0.7 and the fold change (protein LMJF.34.0010 HY[…], CONSERVED) was 0.86. The fold change (protein LMJF.34.3740 SERINE PALMITOYLTRANSFERASE-LIKE PROTEIN) was 0.86, the fold change (protein LMJF.35.1880 60S RIBOSOMAL PROTEIN L5, PUTATIVE) was 0.93 and the fold change (protein LMJF.35.2150 HY[…], CONSERVED) was 0.82. It also gave a fold change (protein LMJF.35.2330 HY[…], CONSERVED) of 0.63, a fold change (protein LMJF.35.4550 HY[…], CONSERVED) of 0.69 and a fold change (protein LMJF.35.4760 HY[…], CONSERVED) of 0.9. It also gave a fold change (protein LMJF.35.4860 HY[…], CONSERVED) of 0.78, a fold change (protein LMJF.35.5040 polyadenylate-binding protein 1) of 0.76 and a fold change (protein LMJF.36.0250 EIF3-INTERACTING PROTEIN-LIKE PROTEIN) of 0.87. It also gave a fold change (protein LMJF.36.0320 […] 2 SUBUNIT, PUTATIVE) of 0.95, a fold change (protein LMJF.36.1670 HY[…], CONSERVED) of 0.52 and a fold change (protein LMJF.36.2160 HY[…], CONSERVED) of 0.83. It also gave a fold change (protein LMJF.36.3760 60S RIBOSOMAL PROTEIN L10A, PUTATIVE) of 1.04 and a fold change (protein LMJF.36.5100 HY[…], CONSERVED) of 0.95.
